Experimental data: PubChem BioAssay AID1259415 (National Center for Advancing Translational Sciences (NCATS), 2018)
In all, about 410,000 compounds went through this assay and about 18,000 (4.4%) were called active. The shares of active, inactive and inconclusive entries below differ from those in the screen. No stated cut-off is given here; in the data, active means activity change below about -60%; inconclusive means no clear call, values can overlap the other calls; inactive means above about -39%.

Assay: qHTS Assay for inhibitors of the human cytomegalovirus (HCMV)
Conditions: HFF cells, HCMV-luciferase reporter, 72 h; at 57.5 µM; active compounds read low
How it was run: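 After 16 h attachment at 37C, HFF cells received test compound and HCMV-luciferase (1 PFU/cell); reporter luminescence read 72 h later, data normalized against buffer-only and known inhibitor Salinomycin.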
On the % scale 0 is the no-effect control and ±100 the full control effect.

Structure (SMILES) | activity change, negative = inhibition
COc1cc(C(=S)N2CCCC2)cc(Cl)c1OCC(=O)Nc1ccc(C)cc1C | inactive: -9.36%
O=C(COc1coc(CN2CCN(c3ccc(F)cc3)CC2)cc1=O)Nc1ccccc1 | inactive: -20.4%
Cc1onc(-c2c(F)cccc2Cl)c1C(=O)Nc1nc2c(s1)CCCC2 | inconclusive: -47.7%
CC(=O)C(C(C)=O)c1c(Cl)c(O)c(O)c2c(C(=O)c3ccccc3)coc12 | active: -107%
CC(C)(C)NCC(=O)N/N=C/c1ccc(OCc2ccccc2)cc1 | inconclusive: -47.5%
COc1cc(C(=O)Nc2ccc3oc(-c4ccccc4)nc3c2)cc(OC)c1OC | active: -81%
COc1ccc(-c2nc(C(=O)NCC3CCCO3)cc3c2[nH]c2ccccc23)cc1 (stereo not given) | inconclusive: -46.5%
CCCCCN(C(=O)CCC(=O)OCC(=O)N1CCCCC1)c1c(N)n(CCCC)c(=O)[nH]c1=O | inconclusive: -51.4%
Cc1ccc2c(=O)c(C(=O)c3cccc(Cl)c3)cn(CC(=O)NCc3ccc(F)cc3)c2n1 | inactive: 4.33%
C=CCn1c(SCC(=O)NCC(c2ccccc2)N(C)C)nc2sc3c(c2c1=O)CCC3 (stereo not given) | inconclusive: -53.1%
CCOC(=O)C1=CCN(S(=O)(=O)c2ccccc2Br)C1c1cccc(Cl)c1 (stereo not given) | inconclusive: -55.2%
COc1ccccc1C(=O)N/C(=N/c1nc(C)cc(C)n1)Nc1ccccc1 | inactive: 87.5%
CCN(Cc1cnn(C)c1)C(=O)c1ccc2nc(Cc3cccc(Cl)c3)oc2c1 | inconclusive: -54.2%
Cc1nn(-c2ccccc2)c(C)c1C(=O)OC(C)C(=O)NC1CCCCC1C (stereo not given) | inconclusive: -44.7%
Cc1nn(C(C)C)c(C)c1[C@@H]1C[C@H]2CN(Cc3cccc(Cl)c3)C(=O)[C@]23CCCN13 | inconclusive: -42.9%
COc1ccc(NC(=O)CN(c2c(C)cccc2C)S(C)(=O)=O)cc1 | inactive: 82.4%
Cc1cc2c(N3CCCCC3C)ncnc2s1 (stereo not given) | inconclusive: -56.5%
COc1ccc(C)cc1NC(=O)C1CCCN(S(=O)(=O)c2cnc[nH]2)C1 (stereo not given) | active: -60.8%
COc1nc(OCC#N)nc(N2CCCCC2)n1 | inconclusive: -54.4%
Cc1cc(C)nc(CCNC(=O)c2cc(COc3c(F)cccc3F)on2)n1 | inconclusive: -58.8%
CC1CCCCC1NC(=O)CN1CCN(S(=O)(=O)c2ccc(Br)s2)CC1 (stereo not given) | inconclusive: -56.1%
Cc1ccc(N2CC(C(=O)Nc3ccc(Br)cc3)CC2=O)cc1 (stereo not given) | inactive: -9.99%
CCC1=Nc2cc(C(=O)NC3CCCC3)ccc2Sc2ccc(Br)cc21 | inconclusive: -55%
COc1cccc(N2CCN(C(=O)c3cc(C)oc3C)CC2)c1 | inconclusive: -48.8%
CN(Cc1ccon1)C(=O)c1ccc2nc(Cc3cccc(Cl)c3)oc2c1 | inconclusive: -49.8%
COc1ccc(-n2ncc3c(NCCC4=CCCCC4)ncnc32)cc1 | inactive: -1.87%
COc1ccccc1N1CCN(CC(=O)NCCc2ccc(S(N)(=O)=O)cc2)CC1 | inconclusive: -42.2%
CCOC(=O)C1CCN(Cc2c(C(=O)N3CCOCC3)nc3c(C)cccn23)CC1 | inconclusive: -44.4%

Structure (SMILES) | activity change, negative = inhibition
COc1ccc(S(=O)(=O)N2CCCCC2)cc1NC(=O)C1CC1C (stereo not given) | inconclusive: -41.6%
C=Cn1cc[n+](CC(=O)c2ccc(C)cc2)c1 | active: -68.4%
CN1C(=O)C(C)(C)c2cc(S(=O)(=O)N3CCCC(C(=O)Nc4ccc(Cl)cc4)C3)ccc21 (stereo not given) | inconclusive: -48.7%
CCOC(=O)C1(Cc2cccc(F)c2)CCN(C(=O)C2CCOCC2)CC1 | inconclusive: -44.1%
CC1CN(S(=O)(=O)c2cccc(-c3cn4ccccc4n3)c2)CC(C)O1 (stereo not given) | active: -86%
CCc1cc(=O)oc2c3c(cc(OCC(=O)N[C@H](C(=O)O)[C@H](C)CC)c12)OC(C)(C)CC3 | inconclusive: -44.8%
CC(=O)Nc1ccc(S(=O)(=O)N2CC3(C)CC2CC(C)(C)C3)cc1 (stereo not given) | inconclusive: -43.2%
CCOc1cc(/C=N/NC(=O)c2ccc(O)cc2)ccc1Oc1nc(Cl)ncc1F | active: -71.1%
c1ccc(CNc2ccc3c(c2)ncn3C2CCCCC2)nc1 | inconclusive: -46.3%
CC(C)CC(=O)N1CCN(c2ccc([N+](=O)[O-])c(NCc3ccccc3)c2)CC1 | inconclusive: -41.8%
O=C(CCS(=O)(=O)Cc1ccccc1)Nc1nc2c(s1)CCCC2 | active: -60.7%
CC1=CC(C)(C)Nc2ccc(OC(=O)c3ccco3)cc21 | active: -81.8%
Cc1cc(C)c(S(=O)(=O)/N=C2/C=C(Sc3ncn[nH]3)C(=O)c3ccccc32)cc1C | active: -100%
CCn1c(NC(=O)c2nn(C)cc2Br)nc2ccccc21 | inconclusive: -57.8%
Cc1cccc(-c2nnnn2-c2cccc(C)c2)c1 | inconclusive: -41.1%
CC1CCc2[nH]c3ccc(C(=O)N(C)CC(=O)Nc4ccccc4C(F)(F)F)cc3c2C1 (stereo not given) | active: -88.2%
CC(=O)c1cccc(-c2ccc3c(=O)[nH]c(Nc4ccccc4)cc3c2)c1 | inactive: -32.5%
COc1ccc(Cl)cc1NC(=O)CN(C)CC(=O)Nc1ccccc1N1CCOCC1 | inconclusive: -54%
COc1ccc(/C=C/C(=O)NC(C)CCc2ccccc2)cc1 (stereo not given) | active: -60.2%
CCCCC(=O)NC(c1ccc(Cl)cc1)c1ccc2cccnc2c1O (stereo not given) | active: -97.9%
NC(=O)c1ccc(SCC(=O)OCC(=O)NC2CCCCCCC2)c([N+](=O)[O-])c1 | inconclusive: -42.5%
Cc1ccc(S(=O)(=O)NCCCNS(=O)(=O)c2ccccc2)cc1 | inactive: -19%
S=C(NC1CCCCC1)N1CCn2cccc2C1c1cccnc1 (stereo not given) | inactive: -32.1%
COc1ccc(/C=C/C(=O)NNC(=O)c2ccncc2)c(OC)c1 | inconclusive: -40.8%
CSCC[C@H](N)C(=O)N1CCC(C(=O)N[C@H](C(=O)NCc2ccccc2F)C(C)C)CC1 | inactive: 7.75%
Fc1ccc(CNC(=S)NC2CCCCCC2)cc1 | inactive: -26.6%
CN(C(=O)C1CCN(S(=O)(=O)c2ccccc2)CC1)c1c(N)n(Cc2ccccc2)c(=O)[nH]c1=O | inconclusive: -42.4%

Reprinted from the listing, 11 compounds:
Structure (SMILES) | activity change, negative = inhibition
Cc1cccc(-c2nnnn2-c2cccc(C)c2)c1 | inconclusive: -41.1%
CC1CCc2[nH]c3ccc(C(=O)N(C)CC(=O)Nc4ccccc4C(F)(F)F)cc3c2C1 (stereo not given) | active: -88.2%
CC(=O)c1cccc(-c2ccc3c(=O)[nH]c(Nc4ccccc4)cc3c2)c1 | inactive: -32.5%
COc1ccc(Cl)cc1NC(=O)CN(C)CC(=O)Nc1ccccc1N1CCOCC1 | inconclusive: -54%
COc1ccc(/C=C/C(=O)NC(C)CCc2ccccc2)cc1 (stereo not given) | active: -60.2%
CCCCC(=O)NC(c1ccc(Cl)cc1)c1ccc2cccnc2c1O (stereo not given) | active: -97.9%
NC(=O)c1ccc(SCC(=O)OCC(=O)NC2CCCCCCC2)c([N+](=O)[O-])c1 | inconclusive: -42.5%
Cc1ccc(S(=O)(=O)NCCCNS(=O)(=O)c2ccccc2)cc1 | inactive: -19%
S=C(NC1CCCCC1)N1CCn2cccc2C1c1cccnc1 (stereo not given) | inactive: -32.1%
COc1ccc(/C=C/C(=O)NNC(=O)c2ccncc2)c(OC)c1 | inconclusive: -40.8%
CSCC[C@H](N)C(=O)N1CCC(C(=O)N[C@H](C(=O)NCc2ccccc2F)C(C)C)CC1 | inactive: 7.75%
